For three molecules, binding results are on record in doi:10.1101/2020.03.29.015024.

For the assay, the target named is T1, Mitofusin 2 (MFN2) (mouse (endogenous in testis)) (UniProt Q80U63).
T1 sequence: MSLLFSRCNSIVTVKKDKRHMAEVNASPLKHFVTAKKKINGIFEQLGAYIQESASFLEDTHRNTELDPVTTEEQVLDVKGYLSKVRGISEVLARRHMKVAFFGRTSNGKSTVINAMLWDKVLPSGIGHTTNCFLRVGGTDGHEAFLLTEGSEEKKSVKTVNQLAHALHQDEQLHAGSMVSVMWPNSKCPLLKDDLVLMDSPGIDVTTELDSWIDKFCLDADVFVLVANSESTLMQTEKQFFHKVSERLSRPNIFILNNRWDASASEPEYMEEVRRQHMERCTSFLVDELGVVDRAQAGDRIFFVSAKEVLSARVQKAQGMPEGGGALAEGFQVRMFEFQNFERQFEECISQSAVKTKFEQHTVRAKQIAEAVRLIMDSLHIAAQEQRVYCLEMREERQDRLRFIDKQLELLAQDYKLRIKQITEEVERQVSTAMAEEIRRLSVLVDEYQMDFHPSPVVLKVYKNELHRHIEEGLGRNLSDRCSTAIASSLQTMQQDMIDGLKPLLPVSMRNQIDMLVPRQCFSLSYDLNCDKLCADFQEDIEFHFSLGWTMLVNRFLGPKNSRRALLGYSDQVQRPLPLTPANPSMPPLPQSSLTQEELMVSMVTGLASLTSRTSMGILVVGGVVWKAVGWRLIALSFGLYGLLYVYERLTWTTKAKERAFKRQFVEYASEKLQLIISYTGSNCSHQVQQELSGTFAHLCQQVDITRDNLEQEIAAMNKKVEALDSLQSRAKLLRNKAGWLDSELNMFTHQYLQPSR
The experiment in a line: co-IP.

No constants are given. Whether binding was seen depends on the method and setting. In cells and extracts the contact can be indirect. Some entries that bind do so weakly or less than the wild type. Tags and fused reporters may be left off the sequences shown.

B1: DDX4 (protein, UniProt Q61496 1-702)
chain: MGDEDWEAEILKPHVSSYVPVFEKDKYSSGANGDTFNRTSASSDIGESSKKENTSTTGGFGRGKGFGNRGFLNNKFEEGDSSGFWKESNNDCEDNQTRSRGFSKRGGCQDGNDSEASGPFRRGGRGSFRGCRGGFGLGRPNSESDQDQGTQRGGGLFGSRKPAASDSGNGDTYQSRSGSGRGGYKGLNEEVVTGSGKNSWKSETEGGESSDSQGPKVTYIPPPPPEDEDSIFAHYQTGINFDKYDTILVEVSGHDAPPAILTFEEANLCQTLNNNIAKAGYTKLTPVQKYSIPIVLAGRDLMACAQTGSGKTAAFLLPILAHMMRDGITASRFKELQEPECIIVAPTRELINQIYLEARKFSFGTCVRAVVIYGGTQFGHSVRQIVQGCNILCATPGRLMDIIGKEKIGLKQVKYLVLDEADRMLDMGFGPEMKKLISCPGMPSKEQRQTLLFSATFPEEIQRLAGDFLKSSYLFVAVGQVGGACRDVQQTILQVGQYSKREKLVEILRNIGDERTMVFVETKKKADFIATFLCQEKISTTSIHGDREQREREQALGDFRCGKCPVLVATSVAARGLDIENVQHVINFDLPSTIDEYVHRIGRTGRCGNTGRAISFFDTDSDNHLAQPLVKVLSDAQQDVPAWLEEIAFSTYVPPSFSSSTRGGAVFASVDTRKNYQGKHTLNTAGISSSQAPNPVDDESWD
In the case of B1, the binding result is “binds”.

B2: GASZ (protein, UniProt Q8VD46 1-475)
chain: MAAGTLRGLAVAGGGESSDSEDDGWDIGYLDRSSQKLKRSLPVEEKNETFKKALTTGDISLVKELLDSGINVDSSFRYGWTPLMYAASVANAELVRFLLDRGANASFDKDKLTILISACSARGSEEQVLKCVELLLSRNADPNTACRRLMTPIMYAARDGHTQVVALLVAHGAEVNAQDENGYTALTWAARQGHKNVILKLLELGANKMLQTKDGRTPSEIAKRNKHLEIFNFLSLTLNPLEGKLQQLTKEETICKLLATDSDKEKDHIFSPYTAFGDLEIFLHGLGLEHMTDSLKEKDITLRHLLTMKKDELTKNGIASKDQQKILAALKELEVEEINFGKLPEVTKLEISGDEFLNFLLKLNKQCGHLITAVQNIITELPVNSHKIVLEWASPRNFTSVCEELVSNVEDLNEEVCRLKELIQKMQNERENDPTHIPLVEEVSTWKTRILKRSAVTVCGFGLLLFIGKLTLQRK
In the case of B2, the binding result is reported as “binds”.

B3: Mitofusin 1 (MFN1) (protein, UniProt Q811U4 1-741)
chain: MAETVSPLKHFVLAKKAITAIFGQLLEFVTEGSHFVEATYRNPELDRIASEDDLVEIQGYRNKLAVIGEVLSRRHMKVAFFGRTSSGKSSVINAMLWDKVLPSGIGHTTNCFLSVEGTDGDKAYLMTEGSDEKKSVKTVNQLAHALHMDKDLKAGCLVHVFWPKAKCALLRDDLVLVDSPGTDVTTELDIWIDKFCLDADVFVLVANSESTLMNTEKHFFHKVNERLSKPNIFILNNRWDASASEPEYMEDVRRQHMERCLHFLVEELKVVSPSEARNRIFFVSAKEVLNSRKHKAQGMPEGGGALAEGFQARLQEFQNFEQTFEECISQSAVKTKFEQHTIRAKQILDTVKNILDSVNVAAAEKRVYSMEEREDQIDRLDFIRNQMNLLTLDVKKKIKEVTEEVANKVSCAMTDEICRLSVLVDEFCSEFHPTPSVLKVYKSELNKHIEDGMGRNLADRCTNEVNASILQSQQEIIENLKPLLPAGIQNKLHTLIPCKKFDLSYDLNCHKLCSDFQEDIVFRFSLGWSSLVHRFLGSTNAQRVLLGLSEPIFQVPRSLASTPTAPSNPAAPDNAAQEELMITLITGLASLTSRTSMGIIVVGGVIWKTVGWKLISVTLSMYGALYLYERLTWTTRAKERAFKQQFVNYATEKLQMIVSFTSANCSHQVQQEMATTFARLCQQVDVTQKHLEEEIARLSKEIDQLEKIQNNSKLLRNKAVQLESELENFSKQFLHPSSGES
With B3, the binding entry was “binds”.
